At least one structure is not confirmed: it was looked up by name or label, or the drawing left a doubt. Bridge positions count the residues as written; N and C are the ends. Square brackets hold non-standard residues; d marks the D form. Peptide text beside a SMILES is read from it. * marks the point of attachment. X1 = N=C(N)NCCC[C@H]1C(=O)N[C@@H](C(N)=O)CN1*; Heptanoyl = CCCCCCC(=O)*; Nle = CCCC[C@H](N)C(=O)O
Tested on: cGMP
Assay: cGMP response, IV dosing (Table 7)
Format: in vivo

## CCCCCCC(=O)N[C@H]1CSSC[C@@H](C(=O)N[C@@H](Cc2ccc(O)cc2)C(=O)N2C[C@H](C(N)=O)NC(=O)[C@@H]2CCCNC(=N)N)NC(=O)[C@H](CO)NC(=O)[C@H]([C@@H](C)CC)NC(=O)[C@H](CCCNC(=N)N)NC(=O)[C@H](CC(=O)O)NC(=O)[C@H](CCCC)NC(=O)[C@H](CCCNC(=N)N)NC(=O)CNC(=O)[C@@H](C)NC(=O)[C@H](Cc2ccccc2)NC(=O)[C@H](Cc2c[nH]cn2)NC1=O [1-130] (Heptanoyl-CHF[dA]GR[Nle]DRISCY-X1; disulfide 1-12)
  cGMP AUC: 276 nM·h
  cGMP AUCnom: 138 nM·h
  cGMP Cmax: 524 nM
